US20170107294A1, “ANTI-CD14 ANTIBODIES AND USES THEREOF” (Nordlandssykehuset HF, priority 2014, published 2017)
Results are given in words; binding and its absence hold for the method and conditions named. Some binding calls cover weakened binding; strength is not graded here.

Sequences of proteins named here, by UniProt entry; tags and fusion partners are left off. A change or cut given only in a name is not applied to a line headed by its entry.
UniProt P12318: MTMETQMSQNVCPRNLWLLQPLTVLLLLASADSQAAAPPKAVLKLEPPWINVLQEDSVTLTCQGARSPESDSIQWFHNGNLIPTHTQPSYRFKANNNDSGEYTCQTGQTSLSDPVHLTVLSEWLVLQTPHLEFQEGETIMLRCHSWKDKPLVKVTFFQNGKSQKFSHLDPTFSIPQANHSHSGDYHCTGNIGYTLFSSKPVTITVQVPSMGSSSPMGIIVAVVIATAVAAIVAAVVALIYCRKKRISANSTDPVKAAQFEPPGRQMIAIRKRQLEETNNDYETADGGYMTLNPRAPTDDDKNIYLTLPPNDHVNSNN

B1: recombinant 18D11 (r18D11), recombinant anti-human CD14 IgG2/4 Ab (antibody)
heavy: EVQLVESGGGLMQPKGSLKLSCAASGFTFKTYALNWVRQAPGTGLEWVARIRSKSNNYTTYYADSVKDRFTISRDDSQNMLYLQMNNLKTEDTAMYYCVRPQSGTSFAYWGQGTLVTVSAASTKGPSVFPLAPCSRSTSESTAALGCLVKDYFPEPVTVSWNSGALTSGVHTFPAVLQSSGLYSLSSVVTVPSSNFGTQTYTCNVDHKPSNTKVDKTVERKCCVECPPCPAPPVAGPSVFLFPPKPKDTLMISRTPEVTCVVVDVSQEDPEVQFNWYVDGVEVHNAKTKPREEQFNSTYRVVSVLTVLHQDWLNGKEYKCKVSNKGLPSSIEKTISKAKGQPREPQVYTLPPSQEEMTKNQVSLTCLVKGFYPSDIAVEWESNGQPENNYKTTPPVLDSDGSFFLYSRLTVDKSRWQEGNVFSCSVMHEALHNHYTQKSLSLSLGK
light: NIVLTQSPASLAVSLGQRATISCRASESVDSYGNSFMHWYQQKPGQPPKLLIYLASNLESGVPARFSGSGSRTDFTLTIDPVEADDVATYYCQQNNGDPYTFGGGTKLEIIRTVAAPSVFIFPPSDEQLKSGTASVVCLLNNFYPREAKVQWKVDNALQSGNSQESVTEQDSKDSTYSLSSTLTLSKADYEKHKVYACEVTHQGLSSPVTKSFNRGEC
B2: recombinant Mil2 (rMil2), recombinant anti-porcine CD14 IgG2/4 Ab (antibody)
heavy: QVRLQQPGAELVRPGASVKLSCKASGYTFTTYWMNWVKQRPEDGLEWIGRIDPYDSETHYNQNFKDKAILTVDKSSSTAYMQLSSLTYEDSAVYYCTRKEGRQWGAYFDYWGQGTTLTVSSASTKGPSVFPLAPCSRSTSESTAALGCLVKDYFPEPVTVSWNSGALTSGVHTFPAVLQSSGLYSLSSVVTVPSSNFGTQTYTCNVDHKPSNTKVDKTVERKCCVECPPCPAPPVAGPSVFLFPPKPKDTLMISRTPEVTCVVVDVSQEDPEVQFNWYVDGVEVHNAKTKPREEQFNSTYRVVSVLTVLHQDWLNGKEYKCKVSNKGLPSSIEKTISKAKGQPREPQVYTLPPSQEEMTKNQVSLTCLVKGFYPSDIAVEWESNGQPENNYKTTPPVLDSDGSFFLYSRLTVDKSRWQEGNVFSCSVMHEALHNHYTQKSLSLSLGK
light: DIVMTQSQKFMSTSVGDRVSVTCKASQYVGTNVAWYQQKPGQSPKALIQSASYRCSGVPDRFTGSGSGTDFTLTISNVQSEDLADYFCQQYNTYVTFGGGTKLELKRTVAAPSVFIFPPSDEQLKSGTASVVCLLNNFYPREAKVQWKVDNALQSGNSQESVTEQDSKDSTYSLSSTLTLSKADYEKHKVYACEVTHQGLSSPVTKSFNRGEC

Columns and labels:
[1] = target: T1, human FcgRIIa (allotype His131) ectodomains fused to GST (human; Schistosoma japonicum) (UniProt P12318+P08515); test: ELISA, coated Ab, GST-fused receptor (FIG. 5)
[2] = target: T1, human FcgRIIa (allotype His131) ectodomains fused to GST (human; Schistosoma japonicum); test: ELISA, coated Ab, GST-fused receptor

| Binder | binding [1] | binding [2] |
| --- | --- | --- |
| B1 | binds | binds |
| B2 | binds | binds |
